Measurements reported in patent US20240293305A1, “COMPOSITION WITH ANTIMICROBIAL OR ANTIFUNGAL ACTIVITY COMPRISING FERMENTED SCUTELLARIA BAICALENSIS EXTRACT, FERMENTED SALVIA MILTIORRHIZA EXTRACT AND FERMENTED DRYPTERIS CCRASSIRHIZOMA EXTRACT” (Sooy-K Co., LTD., priority 2023, published 2024).
For at least one compound, name, drawing or mass did not settle the structure.

Test system: Pseudomonas aeruginosa (P. aeruginosa, KCTC 2513)
Assay: Disc diffusion method, clear zone, P. aeruginosa
Type: cell-based
Conditions: Table 19 Antibiotic: tetracycline (100 μg/mL)
Method: As the strains used for antibacterial activity experiments, Gram-positive bacteria Staphylococcus aureus (S. aureus, KCTC 1916), Gram-negative Escherichia coli (E. coli, KCTC 2571), Pseudomonas aeruginosa (P. aeruginosa, KCTC 2513), Candida albicans (C. albicans, KCTC 7965), and Aspergillus niger (A. niger, KCTC 6196), which were purchased from the Korean collection for Type Cultures (KCTC), were stored and used (Table 5). The inhibitory zones of the extracts were measured by a test method of antibacterial activity to determine the presence or absence of antibacterial activity and to compare the degree of effectiveness of the extracts against the proliferation of bacteria. The antibacterial activity was measured by the disc diffusion method using a paper disc (size: 8 mm, Advantec, Toyo Roshi Kaisha, Ltd., Tokyo, Japan). The strains were each inoculated in an amount of one platinum loop, diluted in 4 mL of sterile water, mixed with a sterilized medium, and the mixture was poured into a prepared plate to be hardened. A 3% extract each was filtered (pore size: 0.4 μm, Advantec MFS, Inc., Tokyo, Japan), and 40 μL was taken and allowed to be absorbed onto a paper disc. After culturing for 24 hours at an appropriate temperature for each strain, the size of the transparent ring formed around the paper disc was measured. [table]

CN(C)[C@@H]1C(O)=C(C(N)=O)C(=O)[C@@]2(O)C(O)=C3C(=O)c4c(O)cccc4[C@@](C)(O)[C@H]3C[C@@H]12 [tetracycline]
Clear zone (ø, mm) P. aeruginosa: no antibacterial activity
